This is an account of results in PMC8752738, “A propolis-derived small molecule ameliorates metabolic syndrome in obese mice by targeting the CREB/CRTC2 transcriptional complex” (Nature Communications, 2022).

Protein sequences, listed by entry. Tags and fused reporters are not part of them. Lines headed by an entry give the natural chain unless they say otherwise; changes in a name come on top. Residues count along the entry.
UniProt P16220: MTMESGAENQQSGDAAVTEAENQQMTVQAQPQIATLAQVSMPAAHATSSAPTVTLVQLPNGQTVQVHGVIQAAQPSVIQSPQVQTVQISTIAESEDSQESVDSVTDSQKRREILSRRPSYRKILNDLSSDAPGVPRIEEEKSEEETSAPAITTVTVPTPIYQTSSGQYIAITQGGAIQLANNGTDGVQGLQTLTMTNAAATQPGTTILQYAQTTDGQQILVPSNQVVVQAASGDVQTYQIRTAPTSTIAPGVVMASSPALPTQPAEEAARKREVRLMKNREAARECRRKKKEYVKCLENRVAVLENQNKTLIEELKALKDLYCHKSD
CREB-KID: residues 87-146 of P16220
UniProt Q01147: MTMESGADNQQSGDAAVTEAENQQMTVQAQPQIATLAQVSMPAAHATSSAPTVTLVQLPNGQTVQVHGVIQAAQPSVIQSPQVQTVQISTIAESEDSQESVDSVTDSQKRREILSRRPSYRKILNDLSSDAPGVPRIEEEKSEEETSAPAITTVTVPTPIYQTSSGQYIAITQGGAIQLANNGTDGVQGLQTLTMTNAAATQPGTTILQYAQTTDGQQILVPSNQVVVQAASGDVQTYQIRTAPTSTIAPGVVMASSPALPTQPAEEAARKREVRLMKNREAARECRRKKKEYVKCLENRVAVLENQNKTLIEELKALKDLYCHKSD
UniProt Q92793, residues 587-666: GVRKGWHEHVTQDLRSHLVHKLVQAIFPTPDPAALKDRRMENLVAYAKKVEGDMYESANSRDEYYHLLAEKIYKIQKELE
UniProt P45481: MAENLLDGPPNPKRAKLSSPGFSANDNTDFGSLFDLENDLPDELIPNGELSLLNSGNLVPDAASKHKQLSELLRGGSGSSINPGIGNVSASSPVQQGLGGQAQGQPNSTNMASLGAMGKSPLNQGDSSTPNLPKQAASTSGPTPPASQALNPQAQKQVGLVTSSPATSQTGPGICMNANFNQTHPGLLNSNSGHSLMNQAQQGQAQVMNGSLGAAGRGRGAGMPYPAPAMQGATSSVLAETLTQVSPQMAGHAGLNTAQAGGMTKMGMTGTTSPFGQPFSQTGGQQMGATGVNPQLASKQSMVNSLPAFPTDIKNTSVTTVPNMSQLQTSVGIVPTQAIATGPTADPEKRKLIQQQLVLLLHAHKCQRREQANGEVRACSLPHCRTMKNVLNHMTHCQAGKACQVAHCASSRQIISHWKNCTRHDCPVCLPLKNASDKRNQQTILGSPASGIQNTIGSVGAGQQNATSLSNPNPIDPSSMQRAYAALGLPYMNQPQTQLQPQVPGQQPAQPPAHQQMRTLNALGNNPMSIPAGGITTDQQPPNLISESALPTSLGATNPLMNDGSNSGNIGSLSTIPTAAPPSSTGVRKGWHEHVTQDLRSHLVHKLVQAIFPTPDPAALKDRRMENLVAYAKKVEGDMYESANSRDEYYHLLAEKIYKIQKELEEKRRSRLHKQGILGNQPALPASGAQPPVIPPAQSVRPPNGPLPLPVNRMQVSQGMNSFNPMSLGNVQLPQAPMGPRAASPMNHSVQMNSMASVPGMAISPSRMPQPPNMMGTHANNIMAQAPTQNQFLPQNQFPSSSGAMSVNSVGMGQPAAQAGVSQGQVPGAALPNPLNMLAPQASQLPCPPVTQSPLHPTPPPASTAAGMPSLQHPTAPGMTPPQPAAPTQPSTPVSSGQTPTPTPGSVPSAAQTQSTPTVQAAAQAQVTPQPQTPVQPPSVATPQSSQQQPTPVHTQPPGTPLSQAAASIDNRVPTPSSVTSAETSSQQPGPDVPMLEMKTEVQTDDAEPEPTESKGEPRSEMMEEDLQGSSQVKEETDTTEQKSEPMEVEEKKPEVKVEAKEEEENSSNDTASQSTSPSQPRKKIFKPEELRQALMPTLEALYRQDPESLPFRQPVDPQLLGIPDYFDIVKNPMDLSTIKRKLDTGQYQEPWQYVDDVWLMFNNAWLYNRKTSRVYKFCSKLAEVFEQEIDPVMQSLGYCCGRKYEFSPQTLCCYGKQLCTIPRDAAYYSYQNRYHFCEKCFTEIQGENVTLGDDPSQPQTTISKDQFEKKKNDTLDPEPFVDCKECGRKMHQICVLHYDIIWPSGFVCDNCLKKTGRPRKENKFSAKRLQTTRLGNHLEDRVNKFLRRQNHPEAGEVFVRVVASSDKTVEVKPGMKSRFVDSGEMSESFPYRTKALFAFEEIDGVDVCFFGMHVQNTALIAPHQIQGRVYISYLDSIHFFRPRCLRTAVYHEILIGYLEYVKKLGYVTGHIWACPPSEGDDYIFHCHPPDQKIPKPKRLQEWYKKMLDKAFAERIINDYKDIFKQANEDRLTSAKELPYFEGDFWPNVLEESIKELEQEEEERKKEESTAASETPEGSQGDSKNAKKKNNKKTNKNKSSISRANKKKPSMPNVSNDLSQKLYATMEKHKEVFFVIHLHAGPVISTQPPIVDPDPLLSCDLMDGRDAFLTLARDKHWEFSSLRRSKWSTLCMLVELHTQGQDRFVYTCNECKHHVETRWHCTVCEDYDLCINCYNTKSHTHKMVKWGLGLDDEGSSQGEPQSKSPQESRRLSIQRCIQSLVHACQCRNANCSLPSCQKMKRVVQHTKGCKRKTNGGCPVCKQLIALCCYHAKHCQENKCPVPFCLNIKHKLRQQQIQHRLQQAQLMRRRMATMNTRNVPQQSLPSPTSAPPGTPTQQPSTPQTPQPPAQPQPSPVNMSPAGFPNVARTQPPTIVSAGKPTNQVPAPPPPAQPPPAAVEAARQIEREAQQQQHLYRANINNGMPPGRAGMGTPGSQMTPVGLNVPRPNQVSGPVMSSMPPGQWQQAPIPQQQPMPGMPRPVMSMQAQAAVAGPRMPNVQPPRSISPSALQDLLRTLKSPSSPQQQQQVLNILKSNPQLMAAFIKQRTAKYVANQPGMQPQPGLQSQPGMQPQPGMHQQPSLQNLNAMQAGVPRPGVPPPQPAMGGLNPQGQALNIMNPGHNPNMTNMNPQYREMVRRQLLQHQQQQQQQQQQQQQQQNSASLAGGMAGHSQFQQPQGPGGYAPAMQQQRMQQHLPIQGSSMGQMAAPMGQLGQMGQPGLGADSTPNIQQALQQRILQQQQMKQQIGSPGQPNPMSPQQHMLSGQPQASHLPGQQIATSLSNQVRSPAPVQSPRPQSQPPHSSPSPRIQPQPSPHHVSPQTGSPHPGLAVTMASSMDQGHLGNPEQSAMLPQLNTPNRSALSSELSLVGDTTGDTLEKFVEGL

One assay has as its target CREB-KID (UniProt P16220). The assay is described as follows: two-hybrid; two-hybrid assay of CBP-KIX and CREB-KID domains, with or without APC (Supplementary Fig. 2h).
The target in assay [1] is T1, endogenous CRTC2 (mouse (endogenous in primary hepatocytes)) (UniProt Q3U182).
T1 sequence: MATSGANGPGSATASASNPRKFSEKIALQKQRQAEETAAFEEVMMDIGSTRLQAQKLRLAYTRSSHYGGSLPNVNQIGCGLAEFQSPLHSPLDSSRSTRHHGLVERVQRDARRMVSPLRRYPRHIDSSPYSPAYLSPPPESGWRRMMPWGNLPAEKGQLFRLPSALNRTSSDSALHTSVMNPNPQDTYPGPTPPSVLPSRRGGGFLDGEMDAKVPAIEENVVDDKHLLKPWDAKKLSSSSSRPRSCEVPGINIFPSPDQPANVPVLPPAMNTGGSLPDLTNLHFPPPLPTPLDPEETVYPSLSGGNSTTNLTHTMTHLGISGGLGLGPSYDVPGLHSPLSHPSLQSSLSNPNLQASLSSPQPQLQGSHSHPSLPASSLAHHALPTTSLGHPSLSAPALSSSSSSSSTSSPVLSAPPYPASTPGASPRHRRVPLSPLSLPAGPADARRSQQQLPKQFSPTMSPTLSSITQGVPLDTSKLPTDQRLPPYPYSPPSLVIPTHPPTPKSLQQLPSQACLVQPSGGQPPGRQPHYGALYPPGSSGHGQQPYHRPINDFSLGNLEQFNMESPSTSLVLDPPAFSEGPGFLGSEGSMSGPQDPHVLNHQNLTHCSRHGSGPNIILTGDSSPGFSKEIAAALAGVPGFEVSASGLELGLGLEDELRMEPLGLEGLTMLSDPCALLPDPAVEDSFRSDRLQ
The assay is described as follows: co-IP; anti-CRTC2 antibody, endogenous proteins in lysates of primary hepatocytes; with or without glucagon and APC (10 uM).

The target in a further assay is BD-CREB (human) (UniProt P16220). Put plainly: two-hybrid; mammalian two-hybrid in HEK293T cells: BD-CREB and VP16AD-CRTC2-S171A with GAL4-Luc reporter, normalised to Renilla; with vehicle or propolis (0-0.1%).
The target of assay [2] is GST-CREB (UniProt P16220). The assay is described as follows: pull-down; in vitro pull-down, purified GST-CREB and HIS-CRTC2-S171A from E. coli; APC 0, 5, 10 or 50 uM in the mixture; both purified.
The target of assay [3] is GST-CREB (UniProt P16220). The assay is described as follows: pull-down; GST-CREB beads with lysates of HEK293T cells overexpressing FLAG-CRTC2; with or without APC (10 uM) in the culture media and the mixture; only the target purified.
The target of assay [4] is endogenous CREB (mouse (endogenous in primary hepatocytes)) (UniProt Q01147). Put plainly: co-IP; anti-CREB antibody, lysates of primary hepatocytes expressing HA-CRTC2; with or without glucagon (100 nM) and APC (10 uM).
Assay [5] concerns the target T2, CRTC2 (co-immunoprecipitation with SEC31A, Supplementary Fig. 5b) (UniProt Q53ET0).
T2 sequence: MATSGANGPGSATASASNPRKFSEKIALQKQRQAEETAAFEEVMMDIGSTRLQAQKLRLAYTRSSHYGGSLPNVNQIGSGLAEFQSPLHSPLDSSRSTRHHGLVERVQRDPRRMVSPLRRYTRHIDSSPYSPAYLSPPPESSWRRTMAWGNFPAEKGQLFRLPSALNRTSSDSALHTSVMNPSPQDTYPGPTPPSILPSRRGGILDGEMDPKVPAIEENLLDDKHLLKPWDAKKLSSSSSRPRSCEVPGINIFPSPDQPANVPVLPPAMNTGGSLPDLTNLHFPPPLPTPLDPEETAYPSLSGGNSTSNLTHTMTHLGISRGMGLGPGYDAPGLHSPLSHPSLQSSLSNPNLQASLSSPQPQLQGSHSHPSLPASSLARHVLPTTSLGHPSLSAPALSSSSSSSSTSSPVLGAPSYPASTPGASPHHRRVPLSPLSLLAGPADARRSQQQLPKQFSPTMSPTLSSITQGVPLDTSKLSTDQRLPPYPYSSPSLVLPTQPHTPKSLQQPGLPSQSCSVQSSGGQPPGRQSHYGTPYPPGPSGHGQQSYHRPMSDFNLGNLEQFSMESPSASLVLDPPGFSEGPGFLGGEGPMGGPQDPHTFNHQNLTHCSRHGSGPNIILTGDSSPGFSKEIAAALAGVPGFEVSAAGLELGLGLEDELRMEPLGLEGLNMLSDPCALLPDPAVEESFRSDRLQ
Put plainly: co-IP; co-immunoprecipitation of CRTC2 and SEC31A, with or without APC (Supplementary Fig. 5b).

Positions count from the first letter of the chain named. Names and notes keep the numbering of the source. These are yes or no findings as the source states them, for the method shown. For some assays here: Binding seen in cells or lysates may run through a third protein. Some entries that bind do so weakly or less than the wild type. For some assays here: Sequences can lack the tags named with a protein.

Regarding “CBP-KIX (from UniProt Q92793 587-666) (domain or fragment)”, the binding result with CREB-KID is listed as “binds”. For “endogenous CREB (from UniProt Q01147 1-327)”, in assay [1], the binding entry is on record as “binds”. Take “endogenous CBP (from UniProt P45481 1-2441)”: the binding entry in assay [1] was “binds”.

B1: VP16AD-CRTC2-S171A (protein, UniProt Q53ET0 1-693)
chain: T2 sequence with S171A
Regarding B1, in the assay with BD-CREB (human), the binding entry is “binds”.

B2: HIS-CRTC2-S171A (protein, UniProt Q53ET0 1-693)
chain: T2 sequence with S171A
As to B2, the binding result in the assay with GST-CREB [2] was “binds”.

B3: FLAG-CRTC2 (protein, UniProt Q53ET0 1-693)
chain: T2 sequence
Regarding B3, in the assay with GST-CREB [3], the binding entry is “binds”.

B4: HA-CRTC2 (protein, UniProt Q53ET0 1-693)
chain: T2 sequence
With B4, the binding entry in assay [4] is reported as “binds”.

B5: SEC31A (protein, UniProt O94979 1-1220)
chain: MKLKEVDRTAMQAWSPAQNHPIYLATGTSAQQLDATFSTNASLEIFELDLSDPSLDMKSCATFSSSHRYHKLIWGPYKMDSKGDVSGVLIAGGENGNIILYDPSKIIAGDKEVVIAQNDKHTGPVRALDVNIFQTNLVASGANESEIYIWDLNNFATPMTPGAKTQPPEDISCIAWNRQVQHILASASPSGRATVWDLRKNEPIIKVSDHSNRMHCSGLAWHPDVATQMVLASEDDRLPVIQMWDLRFASSPLRVLENHARGILAIAWSMADPELLLSCGKDAKILCSNPNTGEVLYELPTNTQWCFDIQWCPRNPAVLSAASFDGRISVYSIMGGSTDGLRQKQVDKLSSSFGNLDPFGTGQPLPPLQIPQQTAQHSIVLPLKKPPKWIRRPVGASFSFGGKLVTFENVRMPSHQGAEQQQQQHHVFISQVVTEKEFLSRSDQLQQAVQSQGFINYCQKKIDASQTEFEKNVWSFLKVNFEDDSRGKYLELLGYRKEDLGKKIALALNKVDGANVALKDSDQVAQSDGEESPAAEEQLLGEHIKEEKEESEFLPSSGGTFNISVSGDIDGLITQALLTGNFESAVDLCLHDNRMADAIILAIAGGQELLARTQKKYFAKSQSKITRLITAVVMKNWKEIVESCDLKNWREALAAVLTYAKPDEFSALCDLLGTRLENEGDSLLQTQACLCYICAGNVEKLVACWTKAQDGSHPLSLQDLIEKVVILRKAVQLTQAMDTSTVGVLLAAKMSQYANLLAAQGSIAAALAFLPDNTNQPNIMQLRDRLCRAQGEPVAGHESPKIPYEKQQLPKGRPGPVAGHHQMPRVQTQQYYPHGENPPPPGFIMHGNVNPNAAGQLPTSPGHMHTQVPPYPQPQPYQPAQPYPFGTGGSAMYRPQQPVAPPTSNAYPNTPYISSASSYTGQSQLYAAQHQASSPTSSPATSFPPPPSSGASFQHGGPGAPPSSSAYALPPGTTGTLPAASELPASQRTGPQNGWNDPPALNRVPKKKKMPENFMPPVPITSPIMNPLGDPQSQMLQQQPSAPVPLSSQSSFPQPHLPGGQPFHGVQQPLGQTGMPPSFSKPNIEGAPGAPIGNTFQHVQSLPTKKITKKPIPDEHLILKTTFEDLIQRCLSSATDPQTKRKLDDASKRLEFLYDKLREQTLSPTITSGLHNIARSIETRNYSEGLTMHTHIVSTSNFSETSAFMPVLKVVLTQANKLGV
As to B5, the binding result in assay [5] is given as “binds”.
